Assay in all cases: two-hybrid; LexA DNA-binding domain (pMM5) and Gal4 activation domain (pMM6) fusions in strain SGY37-VIII,3 (lexA-op-LacZ); drops on agar plates overlaid with soft agar, blue colour read; also done in bfa1Δ and bud14Δ backgrounds
The target in assay [1] is T1, Bfa1 (S. cerevisiae (budding yeast)) (UniProt P47113).
T1 sequence: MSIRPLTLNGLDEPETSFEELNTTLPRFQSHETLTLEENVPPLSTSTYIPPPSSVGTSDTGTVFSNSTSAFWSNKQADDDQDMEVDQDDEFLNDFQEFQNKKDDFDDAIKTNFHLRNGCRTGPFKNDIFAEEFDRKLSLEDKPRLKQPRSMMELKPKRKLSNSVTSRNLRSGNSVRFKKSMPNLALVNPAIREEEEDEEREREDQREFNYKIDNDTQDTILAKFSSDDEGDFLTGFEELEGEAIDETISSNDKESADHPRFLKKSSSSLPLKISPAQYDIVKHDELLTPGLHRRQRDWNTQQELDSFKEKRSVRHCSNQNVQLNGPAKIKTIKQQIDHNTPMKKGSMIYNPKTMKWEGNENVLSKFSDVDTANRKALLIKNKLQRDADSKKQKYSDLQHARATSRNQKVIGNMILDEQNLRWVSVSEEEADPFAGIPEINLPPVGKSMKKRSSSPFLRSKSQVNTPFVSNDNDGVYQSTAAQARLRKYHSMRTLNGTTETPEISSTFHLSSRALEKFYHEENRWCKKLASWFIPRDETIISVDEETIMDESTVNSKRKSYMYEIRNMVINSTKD

The target in assay [2] is T2, Bud14-F379A (S. cerevisiae (budding yeast)) (UniProt P27637).
T2 sequence: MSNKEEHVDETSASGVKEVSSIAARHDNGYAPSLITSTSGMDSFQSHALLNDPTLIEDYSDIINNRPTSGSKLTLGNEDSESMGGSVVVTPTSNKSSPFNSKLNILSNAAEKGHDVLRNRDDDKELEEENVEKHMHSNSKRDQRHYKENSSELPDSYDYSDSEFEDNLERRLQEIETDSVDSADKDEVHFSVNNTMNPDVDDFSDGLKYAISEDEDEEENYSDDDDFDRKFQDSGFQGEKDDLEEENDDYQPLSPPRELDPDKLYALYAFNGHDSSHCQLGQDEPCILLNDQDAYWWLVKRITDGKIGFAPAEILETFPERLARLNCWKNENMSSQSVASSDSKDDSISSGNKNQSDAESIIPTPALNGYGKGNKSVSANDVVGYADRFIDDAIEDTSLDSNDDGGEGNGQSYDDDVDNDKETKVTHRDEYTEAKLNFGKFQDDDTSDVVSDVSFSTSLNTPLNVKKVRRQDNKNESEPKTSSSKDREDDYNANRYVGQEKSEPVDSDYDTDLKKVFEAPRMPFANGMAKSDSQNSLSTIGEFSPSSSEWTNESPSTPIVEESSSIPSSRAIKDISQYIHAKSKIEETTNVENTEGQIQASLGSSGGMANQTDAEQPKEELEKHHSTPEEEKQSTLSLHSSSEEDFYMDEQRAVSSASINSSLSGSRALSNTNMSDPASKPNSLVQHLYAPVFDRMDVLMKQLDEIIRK

The target of assay [3] is T3, Bud14 (S. cerevisiae (budding yeast)) (UniProt P27637).
T3 sequence: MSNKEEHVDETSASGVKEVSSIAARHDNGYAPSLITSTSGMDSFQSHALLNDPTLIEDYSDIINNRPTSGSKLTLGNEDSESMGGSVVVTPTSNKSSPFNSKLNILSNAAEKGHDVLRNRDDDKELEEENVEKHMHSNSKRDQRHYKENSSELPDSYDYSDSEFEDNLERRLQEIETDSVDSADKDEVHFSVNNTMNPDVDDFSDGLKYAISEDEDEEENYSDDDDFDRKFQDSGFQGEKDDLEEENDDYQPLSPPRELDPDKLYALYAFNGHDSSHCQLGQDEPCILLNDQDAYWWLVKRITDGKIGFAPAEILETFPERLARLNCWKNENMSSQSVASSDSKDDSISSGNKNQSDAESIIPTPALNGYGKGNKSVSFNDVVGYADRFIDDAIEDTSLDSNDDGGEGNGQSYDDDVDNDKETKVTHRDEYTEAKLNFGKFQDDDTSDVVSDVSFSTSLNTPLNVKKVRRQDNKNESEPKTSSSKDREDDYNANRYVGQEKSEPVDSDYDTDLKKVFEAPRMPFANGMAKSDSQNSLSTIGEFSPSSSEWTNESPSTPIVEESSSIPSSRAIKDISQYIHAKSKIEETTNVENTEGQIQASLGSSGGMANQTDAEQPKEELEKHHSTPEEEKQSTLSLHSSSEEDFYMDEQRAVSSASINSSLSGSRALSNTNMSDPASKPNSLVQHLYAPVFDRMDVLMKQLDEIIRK

These are yes or no findings as the source states them, for the method shown. Some binding calls cover weakened binding; strength is not graded here.

B1: Cdc14 (enzyme, UniProt Q00684 1-551)
chain: MRRSVYLDNTIEFLRGRVYLGAYDYTPEDTDELVFFTVEDAIFYNSFHLDFGPMNIGHLYRFAVIFHEILNDPENANKAVVFYSSASTRQRANAACMLCCYMILVQAWTPHQVLQPLAQVDPPFMPFRDAGYSNADFEITIQDVVYGVWRAKEKGLIDLHSFNLESYEKYEHVEFGDFNVLTPDFIAFASPQEDHPKGYLATKSSHLNQPFKSVLNFFANNNVQLVVRLNSHLYNKKHFEDIGIQHLDLIFEDGTCPDLSIVKNFVGAAETIIKRGGKIAVHCKAGLGRTGCLIGAHLIYTYGFTANECIGFLRFIRPGMVVGPQQHWLYLHQNDFREWKYTTRISLKPSEAIGGLYPLISLEEYRLQKKKLKDDKRVAQNNIEGELRDLTMTPPSNGHGALSARNSSQPSTANNGSNSFKSSAVPQTSPGQPRKGQNGSNTIEDINNNRNPTSHANRKVVIESNNSDDESMQDTNGTSNHYPKVSRKKNDISSASSSRMEDNEPSATNINNAADDTILRQLLPKNRRVTSGRRTTSAAGGIRKISGSIKK
Regarding B1, the binding entry in assay [1] and in assay [2] was “binds” in each case.

B2: Cdc14-C283S (enzyme, UniProt Q00684 1-551)
chain: MRRSVYLDNTIEFLRGRVYLGAYDYTPEDTDELVFFTVEDAIFYNSFHLDFGPMNIGHLYRFAVIFHEILNDPENANKAVVFYSSASTRQRANAACMLCCYMILVQAWTPHQVLQPLAQVDPPFMPFRDAGYSNADFEITIQDVVYGVWRAKEKGLIDLHSFNLESYEKYEHVEFGDFNVLTPDFIAFASPQEDHPKGYLATKSSHLNQPFKSVLNFFANNNVQLVVRLNSHLYNKKHFEDIGIQHLDLIFEDGTCPDLSIVKNFVGAAETIIKRGGKIAVHSKAGLGRTGCLIGAHLIYTYGFTANECIGFLRFIRPGMVVGPQQHWLYLHQNDFREWKYTTRISLKPSEAIGGLYPLISLEEYRLQKKKLKDDKRVAQNNIEGELRDLTMTPPSNGHGALSARNSSQPSTANNGSNSFKSSAVPQTSPGQPRKGQNGSNTIEDINNNRNPTSHANRKVVIESNNSDDESMQDTNGTSNHYPKVSRKKNDISSASSSRMEDNEPSATNINNAADDTILRQLLPKNRRVTSGRRTTSAAGGIRKISGSIKK
Consider B2, for which the binding entry in assay [3] is given as “binds”.
